The record followed here is PubChem BioAssay AID1347423 (Functional Genomics Laboratory (NCATS/FGL), 2020).

Screen size: about 52,000 sequences; about 210 (0.4%) were called active.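 Rule for the calls: active = gene whose silencing raises cell survival under the drug, median off-target-corrected z-score across its silencing RNAs 2 or more; inactive = the rest.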 Some of the results follow.

The test is described as follows: Resistance to Poly (ADP-Ribose) Polymerase inhibitor: Gene Identification via Genome-wide siRNA Screen. Conditions: mouse BRCA2 R2336H ES cells, olaparib, CellTiter-Glo viability; stronger effect = higher value. The essentials:
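Genome-wide siRNA screen (3 siRNAs/gene, 20 nM) in mouse ES cells carrying hypomorphic BRCA2 R2336H; olaparib 500 nM added 48 h post-transfection, CellTiter-Glo viability 72 h later. Normalized to plate-median negative control; MAD z-scores, gene median, seed-adjusted.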
On the technique in general: Cellular ATP, detected with luciferase, serves as a proxy for viable cell number.
For GGUUGGACGUGGUGAAGAATT against Chtf18, the z-score was inactive: -1.52.
The figure for GGAAGUCAGACAGAUUUAATT against Prss33 is active: 3.17.
On to GCCACUGCUAUAUUCGCAUTT against Slc35d3, for which the z-score is inactive: 0.577.
For GGUAGUCAUUAUUAGGUGUTT against Wdt2, the z-score is inactive: -0.412.
As to CCGCGUGUAUAAGUUGGUGTT against Mrpl9, the z-score was inactive: -0.171.
Take GCUUAUCAAAACAUCGUGATT against Zfp536: the z-score is inactive: 1.86.
In the case of GGAGAUGAUGAUUUACAAATT against Spred1, the z-score is inactive: 0.521.
“GGAGGUCUACGACCUGAAUTT against 1110032A13Rik”: the z-score is inactive: -0.95.
With CCGGAGAGAAGGUCUAAUGTT against Galnt2 the figure was inactive: -0.646; with GGAGAUUUCUGAAACUAGATT against Tiaf2, inactive: -0.635.
In the case of GGUAACUGUGGAGAACUUUTT against Pigk, the z-score is inactive: 0.253.
In the case of “GGCUCUGGAAAACUCAAAUTT against A230048G03Rik”, the z-score is inactive: 1.27.
Turning to GGUUUCCACCAAACAAAACTT against Bmp3, the z-score was inactive: 1.63.
On to GCAAGUGGCUGAGUACUAATT against R74862, for which the z-score was inactive: -2.43.
As for UCGAGGAGUAGUAGCUUAATT against Acsl5, the z-score is inactive: -0.761.
The figure for GGAGGAGCUAUACAAAGCCTT against Rab3il1 is inactive: 1.97; for GGUAUCUGACAUCAUUUCUTT against Csnd it is inactive: -1.04.
Take GGACACACAUCAUUGCCCATT against Olfr649: the z-score was inactive: -0.135.
GGACAUUAAAAGUCUCUUATT against Kbtbd3: the z-score is inactive: -1.4.
For “GGAAAAGAAAAUCGAGACCTT against 4932431F02Rik”, the z-score was inactive: 0.371.
For GCCCUAGUGUCUGAAAAAATT against Sfrp5, the z-score is inactive: -0.318.
With GGUAAAGAUCGACCUUUUGTT against Stx8 the figure was inactive: -0.458.
For CCAACACUACCAGAGAACGTT against Pfkfb1, the z-score is inactive: 0.295.
As to CGGUAGCCAUAUUAAUAUCTT against Spink2, the z-score is inactive: 0.225.
The figure for GGAGGUUAACAGCUGCCAATT against Rnaset2 is inactive: 0.113; for GGAGGAGAGGUACAAACGGTT against Cxxc1 it is inactive: -1.2; for GGAGGUCUGUGCUUACUUGTT against Fnbp4 it is inactive: 0.369.
For “GCUUCCUAACCAGGUUUGATT against 4430402I18Rik”, the z-score is inactive: -0.515.
For GGGUCACGGGAACUCAAAATT against Mlf1, the z-score was inactive: -0.379.
GCCAAAGCAAGAUCCCACUTT against Mrcl: the z-score was inactive: 1.3.
As for CGAUGGCCUGAAUCACUUGTT against Hbb-b1, the z-score is inactive: 0.624.
On to GCUUUAUCACCGAUGUCGATT against Slc29a4, for which the z-score was inactive: -0.271.
With GGCUAUCAUGAACUUGGAUTT against Gpd2 the figure was inactive: 1.96; with GGCCUCAGUUGGACUUGAATT against Scn10a, inactive: 0.383; with “CCAAAUAUCACACACCCGATT against 4933439F11Rik”, inactive: 0.449.
In the case of GGGCUACAUAGGCUUAGACTT against Ptpru, the z-score was inactive: 0.553.
Take GGUUUUAGAAUGUCUUUCATT against Hrsp12: the z-score was inactive: 0.263.
Consider GGGCGGUUCAAAAGGUCAGTT against Cacnb1, for which the z-score was inactive: 0.407.
GGGCUCUUUAGUACUAGAATT against Spn: the z-score is inactive: -0.849.
With GGAAGAGACGAAAUCCUUUTT against Sos1, the z-score is inactive: 2.1.
With CGGGACUGUAAAUUGACCUTT against Scube3 the figure was inactive: 0.121.
Take GCACCUGAGAAGCUCAUUGTT against Bclp2: the z-score is inactive: -0.732.
In the case of CCUCUCCUACACUUCAAAATT against Cmya4, the z-score is inactive: 0.746.
Turning to GGACUCUGGUUAGGAGUUGTT against Tbce, the z-score is inactive: 0.295.
As to GGUUCCAAGAGUGACAAUATT against Nnt, the z-score is inactive: -0.807.
On to GUCUACCAGAUCCUUCCCUTT against H2-Q8, for which the z-score is inactive: -1.06.
As to CGAGCAUUCACCGUACGUATT against Idb4, the z-score was inactive: 0.999.
The figure for CCCUCAUGUUUCAUUUGUGTT against Txnl2 is inactive: 2.69; for “GGUUUCAAUAAUCCAGGAATT against 1300019C06Rik” it is inactive: 0.169.
In the case of “GGAUGGAUCUUCUUGAUUATT against 5230400J09Rik”, the z-score is inactive: -0.406.
For GGUCCUACCAUCUUAUAUGTT against Serpina5, the z-score is inactive: 0.26.
Turning to GCAAUGAGUAUUCAUGCAATT against Sec61a2, the z-score was inactive: -0.423.
With GGGACUAUGACAAAACAGCTT against Atad2 the figure was inactive: 1.08; with GCUGCUAAAGGUGACAUUCTT against Col4a4, inactive: -1.11.
Turning to GCUGUCUUAUUGUGAACCUTT against Olfr1173, the z-score was inactive: -0.694.
Turning to GGCCAAUCAGCCAUCCUAUTT against Lilrb4, the z-score was inactive: 0.0505.
For the sequence GAAAUAGAUGAAGACCGGATT against Ppp1r1a, the z-score is inactive: -0.283.
The figure for “GCCCUGUUCCAAAUGUAACTT against 1700003E24Rik” is inactive: 0.443.
The figure for CCCUCUACUAUGCGUUCUATT against Otop3 is inactive: -1.12; for GGACAAUGUGAUGAAGAUUTT against Fgfr3 it is inactive: 2.61.
With AUAACUACGUAUGUGAUGUTT against Olfr885, the z-score is inactive: 0.959.
With CGCGAGUUAUUUCUCAUAUTT against Pik3cb the figure was inactive: 0.53.
As for GGUGAAGAAGAUGACAUUATT against Spock3, the z-score is inactive: 0.698.
For GGAUGACAGAGAUCUCACATT against Gsh1, the z-score is inactive: 1.82.
GCUACAAGAGAACAAUAGCTT against Lcn2: the z-score is inactive: 0.781.
The figure for GGAAUUCAACUUCUUCAGUTT against Il8ra is inactive: 0.96.
With GCAAUCUGUCCUUCUGUGATT against Olfr1133 the figure was inactive: 1.71.
